Measurements reported in PubChem BioAssay AID1159578 (Peter MacCallum Cancer Centre, 2015).
Aim: 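Knock-downs that alter how fast lymphatic endothelial cells migrate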 (primary screen). Cell system: human lymphatic endothelial cells. Knock-down reagent: siRNA pool against human genes, 40 nM. Timing: 48 h after transfection. Measurement: 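High-content imaging of dye-stained cells in a scratch assay measures filled wound area and nuclei per well; duplicate means given as ratio to mock and robust z-score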. Direction: migration robust z-score: higher = faster migration into the scratch; nuclei per well: higher = more cells in the well. Call rule: 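Pools averaging fewer than 3300 nuclei are never called; remaining pools count as changed when migration robust z lies outside -2 to 2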. Calls: active = migration changed; inactive = no migration change, or too few cells.
Here is one part, drawn at random, of about 18,000 reagents. About 1,030 of them (5.7%) count as active. 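Inactive calls also include pools with fewer than 3300 nuclei, whose migration was not assessed.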 Raw values are not corrected between plates. A number with no mark means an inactive call. Reagents against one gene are numbered here. Further read-outs or replicates are left out here. Reagent sequences are not shown.

| gene symbol | reagent no. | migration robust z-score | migration class with cell-count check | nuclei per well, duplicate mean |
| --- | --- | --- | --- | --- |
| HMGA2 (high mobility group AT-hook 2) | 1 | -1.31 | migration z between -2 and 2; enough cells | 4132 |
| GSX1 (GS homeobox 1) | 1 | -0.9 | migration z between -2 and 2; enough cells | 6036 |
| PRSS37 (serine protease 37) | 1 | -0.53 | migration z between -2 and 2; enough cells | 6742 |
| SH3KBP1 (SH3 domain containing kinase binding protein 1) | 1 | 1.21 | migration z between -2 and 2; enough cells | 5572 |
| IL4I1 (interleukin 4 induced 1) | 1 | -1.32 | migration z between -2 and 2; enough cells | 5472 |
| PQBP1 (polyglutamine binding protein 1) | 1 | 0.99 | migration z between -2 and 2; enough cells | 5488 |
| PMP2 (peripheral myelin protein 2) | 1 | -0.2 | migration z between -2 and 2; enough cells | 8490 |
| ULBP2 (UL16 binding protein 2) | 1 | -0.34 | migration z between -2 and 2; enough cells | 5968 |
| AUNIP (aurora kinase A and ninein interacting protein) | 1 | -0.75 | migration z between -2 and 2; enough cells | 5252 |
| STIMATE (STIM activating enhancer) | 1 | -0.19 | migration z between -2 and 2; enough cells | 6631 |
| TRIM61 (tripartite motif containing 61) | 1 | 1.38 | migration z between -2 and 2; enough cells | 6540 |
| RRM2 (ribonucleotide reductase regulatory subunit M2) | 1 | -2.91 | under 3300 nuclei; migration not judged | 1930 |
| RRM2 (ribonucleotide reductase regulatory subunit M2) | 2 | -0.63 | migration z between -2 and 2; enough cells | 4513 |
| XPO4 (exportin 4) | 1 | -0.08 | migration z between -2 and 2; enough cells | 4818 |
| FOXD3 (forkhead box D3) | 1 | -0.31 | migration z between -2 and 2; enough cells | 5765 |
| HSD17B11 (hydroxysteroid 17-beta dehydrogenase 11) | 1 | 0.1 | under 3300 nuclei; migration not judged | 640 |
| FBXL18 (F-box and leucine rich repeat protein 18) | 1 | -2.38 (active) | migration z below -2; enough cells | 5382 |
| EXOC6 (exocyst complex component 6) | 1 | -1.34 | migration z between -2 and 2; enough cells | 6398 |
| CCNQ (cyclin Q) | 1 | -0.24 | migration z between -2 and 2; enough cells | 6796 |
| ARHGAP24 (Rho GTPase activating protein 24) | 1 | 0.12 | migration z between -2 and 2; enough cells | 6298 |
| BOC (BOC cell adhesion associated, oncogene regulated) | 1 | -0.02 | migration z between -2 and 2; enough cells | 6469 |
| OR1Q1 (olfactory receptor family 1 subfamily Q member 1) | 1 | -0.12 | migration z between -2 and 2; enough cells | 6653 |
| ICE2 (interactor of little elongation complex ELL subunit 2) | 1 | 0.61 | migration z between -2 and 2; enough cells | 7242 |
| CLASP1 (cytoplasmic linker associated protein 1) | 1 | 1.75 | migration z between -2 and 2; enough cells | 5744 |
| ASGR2 (asialoglycoprotein receptor 2) | 1 | -1.01 | migration z between -2 and 2; enough cells | 5458 |
| KRT6A (keratin 6A) | 1 | -0.48 | migration z between -2 and 2; enough cells | 4270 |
| CCDC184 (coiled-coil domain containing 184) | 1 | -0.74 | migration z between -2 and 2; enough cells | 5664 |
| CUL2 (cullin 2) | 1 | -1.35 | migration z between -2 and 2; enough cells | 5220 |
| TBC1D10C (TBC1 domain family member 10C) | 1 | -0.56 | migration z between -2 and 2; enough cells | 4783 |
| ANKRD34A (ankyrin repeat domain 34A) | 1 | -0.3 | migration z between -2 and 2; enough cells | 6074 |
| MYO7A (myosin VIIA) | 1 | 0.91 | migration z between -2 and 2; enough cells | 5376 |
| UROS (uroporphyrinogen III synthase) | 1 | -1.03 | migration z between -2 and 2; enough cells | 5410 |
| SDK1 (sidekick cell adhesion molecule 1) | 1 | 0.92 | migration z between -2 and 2; enough cells | 6430 |
| BHLHA15 (basic helix-loop-helix family member a15) | 1 | 0.15 | migration z between -2 and 2; enough cells | 5967 |
| MRPL47 (mitochondrial ribosomal protein L47) | 1 | 1.15 | migration z between -2 and 2; enough cells | 6312 |
| NOX5 (NADPH oxidase 5) | 1 | -0.22 | migration z between -2 and 2; enough cells | 5224 |
| PGPEP1 (pyroglutamyl-peptidase I) | 1 | 0.62 | migration z between -2 and 2; enough cells | 4991 |
| ADA (adenosine deaminase) | 1 | -1.04 | migration z between -2 and 2; enough cells | 4893 |
| ZMYM2 (zinc finger MYM-type containing 2) | 1 | 0.09 | migration z between -2 and 2; enough cells | 5550 |
| MON1B (MON1 vesicular trafficking associated B) | 1 | -0.41 | migration z between -2 and 2; enough cells | 5920 |
| TRUB1 (TruB pseudouridine synthase family member 1) | 1 | -0.31 | migration z between -2 and 2; enough cells | 5994 |
| DNAJC25 (DnaJ heat shock protein family (Hsp40) member C25) | 1 | -0.18 | migration z between -2 and 2; enough cells | 5768 |
| IGFBPL1 (insulin like growth factor binding protein like 1) | 1 | -0.13 | migration z between -2 and 2; enough cells | 6085 |
| HSD11B2 (hydroxysteroid 11-beta dehydrogenase 2) | 1 | -0.42 | migration z between -2 and 2; enough cells | 5317 |
| TXNDC11 (thioredoxin domain containing 11) | 1 | 0.08 | migration z between -2 and 2; enough cells | 5812 |
| ALKBH1 (alkB homolog 1, histone H2A dioxygenase) | 1 | 0.08 | migration z between -2 and 2; enough cells | 6683 |
| LPAR3 (lysophosphatidic acid receptor 3) | 1 | -1.84 | migration z between -2 and 2; enough cells | 3620 |
| SLC27A6 | 1 | 0.75 | migration z between -2 and 2; enough cells | 6026 |
| PEX10 (peroxisomal biogenesis factor 10) | 1 | 0.68 | migration z between -2 and 2; enough cells | 6390 |
| VSX2 (visual system homeobox 2) | 1 | -0.54 | migration z between -2 and 2; enough cells | 6712 |
| HPX (hemopexin) | 1 | -0.78 | migration z between -2 and 2; enough cells | 5796 |
| SLFN13 (schlafen family member 13) | 1 | -1.35 | migration z between -2 and 2; enough cells | 4423 |
| DNAJC8 (DnaJ heat shock protein family (Hsp40) member C8) | 1 | 0.04 | migration z between -2 and 2; enough cells | 5458 |
| FAM133B (family with sequence similarity 133 member B) | 1 | 0.68 | migration z between -2 and 2; enough cells | 5588 |
| ASB7 (ankyrin repeat and SOCS box containing 7) | 1 | -2.08 (active) | migration z below -2; enough cells | 5724 |
| EMID1 (EMI domain containing 1) | 1 | 0.25 | migration z between -2 and 2; enough cells | 5174 |
| SPATC1 (spermatogenesis and centriole associated 1) | 1 | -0.3 | migration z between -2 and 2; enough cells | 5950 |
| TMEM186 (transmembrane protein 186) | 1 | 0.48 | migration z between -2 and 2; enough cells | 6250 |
| SSR1 (signal sequence receptor subunit 1) | 1 | 0.39 | migration z between -2 and 2; enough cells | 5106 |
| SPSB4 (splA/ryanodine receptor domain and SOCS box containing 4) | 1 | -0.21 | migration z between -2 and 2; enough cells | 5060 |
| NACA (nascent polypeptide associated complex subunit alpha) | 1 | 0.16 | migration z between -2 and 2; enough cells | 5491 |
| GATD3 (glutamine amidotransferase class 1 domain containing 3) | 1 | -2.73 (active) | migration z below -2; enough cells | 6178 |
| TEX101 (testis expressed 101) | 1 | -0.64 | migration z between -2 and 2; enough cells | 5962 |
| PTH1R (parathyroid hormone 1 receptor) | 1 | -0.24 | migration z between -2 and 2; enough cells | 4878 |
| SPMIP3 (sperm microtubule inner protein 3) | 1 | -0.68 | migration z between -2 and 2; enough cells | 4476 |
| LIG1 (DNA ligase 1) | 1 | 1.19 | migration z between -2 and 2; enough cells | 4308 |
| MMP19 (matrix metallopeptidase 19) | 1 | 0.57 | migration z between -2 and 2; enough cells | 5788 |
| OLA1 (Obg like ATPase 1) | 1 | 0.78 | migration z between -2 and 2; enough cells | 6426 |
| CCDC174 (coiled-coil domain containing 174) | 1 | -0.58 | migration z between -2 and 2; enough cells | 6374 |
| EDRF1 (erythroid differentiation regulatory factor 1) | 1 | 0.7 | migration z between -2 and 2; enough cells | 5125 |
| CD2 (CD2 molecule) | 1 | 0.23 | migration z between -2 and 2; enough cells | 6665 |
| LIN9 (lin-9 DREAM MuvB core complex component) | 1 | 0.6 | migration z between -2 and 2; enough cells | 6632 |
| CCT5 (chaperonin containing TCP1 subunit 5) | 1 | -1.74 | migration z between -2 and 2; enough cells | 6059 |

7 entries from above, set out differently:
gene symbol	reagent no.	migration robust z-score	migration class with cell-count check	nuclei per well, duplicate mean
ADA (adenosine deaminase)	1	-1.04	migration z between -2 and 2; enough cells	4893
ZMYM2 (zinc finger MYM-type containing 2)	1	0.09	migration z between -2 and 2; enough cells	5550
MON1B (MON1 vesicular trafficking associated B)	1	-0.41	migration z between -2 and 2; enough cells	5920
TRUB1 (TruB pseudouridine synthase family member 1)	1	-0.31	migration z between -2 and 2; enough cells	5994
DNAJC25 (DnaJ heat shock protein family (Hsp40) member C25)	1	-0.18	migration z between -2 and 2; enough cells	5768
IGFBPL1 (insulin like growth factor binding protein like 1)	1	-0.13	migration z between -2 and 2; enough cells	6085
HSD11B2 (hydroxysteroid 11-beta dehydrogenase 2)	1	-0.42	migration z between -2 and 2; enough cells	5317
